# Data from PMC2909962.
# By UniProt entry, the sequences of proteins in these tests, tags left out. Where a name states a change or a piece, a line headed by the entry shows the natural chain unless it says otherwise.
# UniProt P06756: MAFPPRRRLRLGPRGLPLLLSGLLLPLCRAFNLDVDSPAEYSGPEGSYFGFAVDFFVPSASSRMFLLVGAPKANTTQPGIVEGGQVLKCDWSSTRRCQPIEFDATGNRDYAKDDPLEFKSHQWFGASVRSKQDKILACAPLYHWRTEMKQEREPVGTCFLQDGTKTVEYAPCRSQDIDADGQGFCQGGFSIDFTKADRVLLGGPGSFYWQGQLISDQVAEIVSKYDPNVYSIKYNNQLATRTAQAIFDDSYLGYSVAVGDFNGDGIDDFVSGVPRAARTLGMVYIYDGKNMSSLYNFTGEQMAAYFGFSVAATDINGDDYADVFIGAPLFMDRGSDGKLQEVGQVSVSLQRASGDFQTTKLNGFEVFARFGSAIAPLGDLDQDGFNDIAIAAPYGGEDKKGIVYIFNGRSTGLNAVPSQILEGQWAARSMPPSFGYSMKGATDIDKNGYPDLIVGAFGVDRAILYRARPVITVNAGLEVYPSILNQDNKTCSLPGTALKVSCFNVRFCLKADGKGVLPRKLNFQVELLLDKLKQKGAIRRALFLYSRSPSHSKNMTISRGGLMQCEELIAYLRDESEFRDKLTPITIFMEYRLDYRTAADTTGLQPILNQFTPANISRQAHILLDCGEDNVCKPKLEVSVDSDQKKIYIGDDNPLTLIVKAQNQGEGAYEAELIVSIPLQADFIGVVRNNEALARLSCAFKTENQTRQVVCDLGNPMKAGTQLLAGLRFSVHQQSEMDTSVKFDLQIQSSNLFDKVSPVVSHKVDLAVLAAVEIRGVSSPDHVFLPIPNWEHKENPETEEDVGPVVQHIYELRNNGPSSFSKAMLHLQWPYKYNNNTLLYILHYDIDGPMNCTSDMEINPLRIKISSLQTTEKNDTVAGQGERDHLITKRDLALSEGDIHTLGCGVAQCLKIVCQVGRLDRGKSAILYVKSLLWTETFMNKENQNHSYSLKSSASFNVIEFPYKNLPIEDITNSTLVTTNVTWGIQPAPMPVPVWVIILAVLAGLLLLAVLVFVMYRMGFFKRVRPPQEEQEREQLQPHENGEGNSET
# Results are given in words; binding and its absence hold for the method and conditions named. Some results given as binding are weak or reduced against the parent protein; the word gives no strength.
# Biological target: Integrin αvβ5 (human (endogenous in MDA-MB-435 and MCF7)) (UniProt P06756)
# Assay: ELISA; cell-based, peptide blocking: MDA-MB-435 and MCF7 cells prechilled to 4°C, preincubated 1 hr with increasing concentrations of GRGDSP or control GRGESP, then Ad5-GFP (0.04 ug/uL) for 6 hrs at 4°C; bound virus detected with anti-Ad5; only the binder purified
binder,measurement,value
GRGDSP [synthetic peptide GRGDSP],binding,binds
